Library screening results

Chains of the proteins cited; added tags and fusions are not shown.
UniProt E9BF75, entry or part of it: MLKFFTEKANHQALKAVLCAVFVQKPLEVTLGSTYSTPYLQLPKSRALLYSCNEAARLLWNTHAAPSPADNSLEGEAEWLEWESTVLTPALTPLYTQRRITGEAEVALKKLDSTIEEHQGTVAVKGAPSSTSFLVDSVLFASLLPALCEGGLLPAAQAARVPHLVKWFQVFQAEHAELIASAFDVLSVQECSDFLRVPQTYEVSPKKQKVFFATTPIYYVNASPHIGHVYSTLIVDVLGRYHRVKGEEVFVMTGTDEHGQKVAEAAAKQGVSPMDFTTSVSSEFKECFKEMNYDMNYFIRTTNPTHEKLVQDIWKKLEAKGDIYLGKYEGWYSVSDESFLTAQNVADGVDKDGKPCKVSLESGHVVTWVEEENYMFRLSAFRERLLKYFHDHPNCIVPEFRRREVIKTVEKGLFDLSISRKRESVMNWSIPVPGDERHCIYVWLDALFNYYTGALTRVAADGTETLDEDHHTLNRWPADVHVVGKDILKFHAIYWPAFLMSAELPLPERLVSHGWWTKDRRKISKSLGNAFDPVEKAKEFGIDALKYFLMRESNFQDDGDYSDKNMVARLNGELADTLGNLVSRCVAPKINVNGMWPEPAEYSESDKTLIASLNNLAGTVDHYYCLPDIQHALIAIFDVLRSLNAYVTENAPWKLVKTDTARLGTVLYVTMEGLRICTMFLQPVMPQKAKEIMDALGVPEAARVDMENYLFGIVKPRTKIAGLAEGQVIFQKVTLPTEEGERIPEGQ

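Primary screen of methionyl-tRNA synthetase; the read-out is not stated. Target: Methionyl-tRNA synthetase (putative), Leishmania donovani (UniProt E9BF75). The test concentration is not given. Values are per cent inhibition. Of about 68,000 compounds tested this way, about 24 (0.035%) reached 50% or more in at least one test.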

Results are percentages, as filed.
How 0% and 100% were set is not recorded. Most values in the screen are low, and negative values occur.
This is an unselected part of the compounds tested.

| compound | inhibition |
|---|---|
| `O=C1N(CC2CC2)CCC12CCN(Cc1ccoc1)CC2` | 1.603 |
| `CCC(C)[C@H](N)c1nnc(SCC(=O)Nc2cc(C)ccc2C)o1` (some centres unmarked) | 5.831 |
| `COc1cc2cc(C(=O)NCC(=O)O)n(C)c2c(OC)c1OC` | 2.764 |
| `Cc1cc(CN(C)CCC(O)c2ccccc2)nn1C` (centres unmarked) | 15.38 |
| `O=C(NCc1nnc2n1CCCC2)c1cn(-c2ccccc2)nn1` | 10.41 |
| `Cc1cc(C(=O)N2C[C@@H]3[C@@H](CN(C)CCCn4cccn4)[C@@H]3C2)c(C)o1` | 9.253 |
| `COCCC(=O)NCC1COc2cc(OC)ccc2C1` (centres unmarked) | 9.48 |
| `Cc1nccn1C1CCCN(C(=O)COCC2CC2)C1` (centres unmarked) | 13.16 |
| `O=S(=O)(CCN1CCOC(Cn2cccn2)C1)c1ccccc1` (centres unmarked) | 17.6 |
| `Cc1cc(C)c(CNC(=O)C2CCCN(c3cnccn3)C2)c(=O)[nH]1` (centres unmarked) | 17.35 |
| `COCCS(=O)(=O)NC(C)c1ccccc1Cl` (centres unmarked) | 9.922 |
| `c1cnc(N2CCN(CCn3ccnc3-c3c[nH]cn3)CC2)nc1` | 0.5115 |
| `Nc1cc(-c2c[nH]nc2C2CCN(C(=O)C3CCCC3)C2)ccn1` (centres unmarked) | 8.721 |
| `Cc1nnsc1CN1C[C@@H]2CC[C@H](C1)N(Cc1ccccc1)C2` | 11.56 |
| `COCCC(=O)NC[C@H]1CC[C@H](C(c2ccccn2)N(C)C)CC1` (some centres unmarked) | 18.09 |
| `CC(C)CN1CC(C(=O)N(C)CCc2cn[nH]c2)CC1=O` (centres unmarked) | 7.56 |
| `CCS(=O)(=O)N1CCC(NCC2CNc3cc(C)nn3C2)CC1` (centres unmarked) | 7.117 |
| `Cc1ccccc1-c1noc(CN2CCn3c(nnc3C3CC3)C2)n1` | 6.748 |
| `CNC(=O)CCc1cc(C)nc(C2CCCN2)n1` (centres unmarked) | 6.507 |
| `CCOc1ncccc1C(=O)NC1CC(=O)N(CC(F)(F)F)C1` (centres unmarked) | 2.957 |
| `CSCc1cccc(S(=O)(=O)NCCO)c1` | 0.7444 |
| `CC1CCN(C(=O)CSc2nc3c(cnn3CCO)c(=O)[nH]2)CC1` | 2.254 |
| `Cc1cccc(C(=O)N2CCc3c(COCC4CC4)cncc3C2)n1` | 11.75 |
| `CCc1cnc(N2CC[C@@H]3CN(C(C)=O)CCO[C@@H]3C2)nc1` | 2.422 |
| `CC(C)c1ncc(C(=O)N(C)c2ccc(Br)cn2)s1` | 0 |
| `CC(CC(=O)Nc1ccc(C(=O)N(C)C)c(Cl)c1)n1cccc1` (centres unmarked) | 4.658 |
| `CN(Cc1ccccn1)C(=O)[C@H]1CO[C@H]2CCN(CC3CC3)C[C@H]2C1` | 19.74 |
| `Cc1cnc(C(=O)N2CCC3(CC2)CN(c2ccccn2)CCO3)cn1` | 2.667 |
| `CCn1nc2nc(SCC(=O)O)cc(C(F)F)c2c1C` | 14.32 |
| `Cn1nnc2c1CCN(Cc1ccncc1)C2COCc1ccccc1` (centres unmarked) | 15.75 |
| `CN(C)c1cc(C(F)(F)F)nc(N2CCCC2c2ccccn2)n1` (centres unmarked) | 20.87 |
| `Cc1cccc(COC[C@H]2CC[C@H]3[C@H](CCN3Cc3ccco3)O2)n1` | 19.63 |
| `CCS(=O)(=O)c1ccc2oc([C@H]3CCN(Cc4ccccc4)C3)nc2c1` | 9.023 |
| `CCCc1nnc(N2CCN(Cc3ccccc3OC)CC2)o1` | -18.05 |
| `CCCn1cc(CN2CCC(c3[nH]ncc3S(C)(=O)=O)C2)cn1` (centres unmarked) | 7.765 |
| `Cn1ncc2c1C(COCC1CC1)CN(CC1CC1)C2` (centres unmarked) | 16.19 |
| `Cc1ccc(C2CCCN(S(C)(=O)=O)C2)nc1` (centres unmarked) | 12.46 |
| `CCc1nnc(CN2CCC(C3CCCCCN3C(C)=O)CC2)o1` (centres unmarked) | -1.907 |
| `Cc1ccsc1[C@@H]1CCN(C(=O)c2ccc(-c3cc[nH]n3)cc2)C[C@H]1O` | 16.32 |
| `CC(=O)N1CCC(C(=O)Nc2nnc(C(F)(F)F)[nH]2)CC1` | 1.393 |
| `Cn1cc(C(=O)N2CCCC(Cc3cccc4ncccc34)C2)cn1` (centres unmarked) | 5.882 |
| `CC(C)Cn1cc(NC(=O)c2cccc(N(C)C)c2)cn1` | 7.599 |
| `COc1ccc2c(c1)CCN2Cc1nc2c(cnn2C)c(=O)[nH]1` | 21.23 |
| `CN(C)CC(=O)N1CCC2(CC1)COc1ccccc1S(=O)(=O)N(C)C2` | 10.66 |
| `Cc1cccc(C2(CNC(=O)CCN3C(=O)CCC3=O)CCCC2)c1` | 6.103 |
| `CC(C)[C@@H]1CN(S(=O)(=O)Cc2ccccc2)C[C@H]1NS(=O)(=O)N(C)C` | 11.28 |
| `CCc1c(O)nc2nc(N3CCOCC3)nn2c1C` | 6.789 |
| `CNC(=O)[C@@H]1C[C@H]2CN(Cc3ccco3)C[C@H]2N1C` | 9.091 |
| `COc1cccc(CN2CCN(c3noc(C(C)C)n3)CC2)c1F` | 15.86 |
| `Cn1cnc(S(=O)(=O)N2CCN(CC3CC3)c3ncccc3C2)c1` | 13.04 |
| `CCOCCc1nc(-c2cnn3c(C)cc(C)nc23)no1` | 16.77 |
| `O=C(c1ccoc1)N1CCCC1C1CCN(Cc2ccccc2)CC1` (centres unmarked) | 10.09 |
| `COCCCn1ccc(NCc2cnc(C(C)(C)C)s2)n1` | 2.482 |
| `CC(C)CC1SCC(=O)Nc2c1cnn2C1CCCC1` (centres unmarked) | 15.45 |
| `CC(C)N1CCC(C(=O)NC[C@H]2CCc3ccccc3O2)CC1` | 8.075 |
| `CC(=O)N1CCN(C(=O)CN2CCCC2c2c(C)nn(C)c2C)CC1` (centres unmarked) | 9.922 |
| `O=C(Nc1ncnc2c1CCC2)c1cccc(F)c1` | 6.954 |
| `c1ccc(Cc2noc(CN3CCc4cncnc4C3)n2)cc1` | 18.29 |
| `CCOCC(=O)N1CCC(c2nccn2CC2CC2)CC1` | 18.73 |
| `Cc1nn(C)c2c(N(C)Cc3ccco3)nc(C3CC3)nc12` | 13.51 |
| `CN(C)CCNC(=O)c1cc(-c2cnc(N(C)C)nc2)cn1CC1CC1` | 8.609 |
| `Cc1cnn(CCNCc2nc(-c3ccccc3Cl)no2)c1` | 5.102 |
| `O=C(O)CC(NC(=O)CCCc1cccs1)c1ccc(F)cc1` (centres unmarked) | 16.63 |

From ChEMBL document CHEMBL3988442, “University of Dundee, Small-Polar-MMV Screening Library” (2021).